{"source": "paper PMC4537036", "binders": {"B1": {"name": "Caldesmon, full length, yeast two-hybrid prey (pGADT7-CALD1) (protein, UniProt Q05682-4 1-538)", "chain": "MDDFERRRELRRQKREEMRLEAERIAYQRNDDDEEEAARERRRRARQERLRQKQEEESLGQVTDQVEVNAQNSVPDEEAKTTTTNTQVEGDDEAAFLERLARREERRQKRLQEALERQKEFDPTITDASLSLPSRRMQNDTAENETTEKEEKSESRQERYEIEETETVTKSYQKNDWRDAEENKKEDKEKEEEEEEKPKRGSIGENQIKDEKIKKDKEPKEEVKSFMDRKKGFTEVKSQNGEFMTHKLKHTENTFSRPGGRASVDTKEAEGAPQVEAGKRLEELRRRRGETESEEFEKLKQKQQEAALELEELKKKREERRKVLEEEEQRRKQEEADRKLREEEEKRRLKEEIERRRAEAAEKRQKMPEDGLSDDKKPFKCFTPKGSSLKIEERAEFLNKSVQKSSGVKSTHQAAIVSKIDSRLEQYTSAIEGTKSAKPTKPAASDLPVPAEGVRNIKSMWEKGNVFSSPTAAGTPNKETAGLKVGVSSRINEWLTKTPDGNKSPAPKPSDLRPGDVSSKRNLWEKQSVDKVTSPTKV"}, "B2": {"name": "Leupaxin, endogenous in prostate cancer cells (protein, UniProt O60711 1-386)", "chain": "MEELDALLEELERSTLQDSDEYSNPAPLPLDQHSRKETNLDETSEILSIQDNTSPLPAQLVYTTNIQELNVYSEAQEPKESPPPSKTSAAAQLDELMAHLTEMQAKVAVRADAGKKHLPDKQDHKASLDSMLGGLEQELQDLGIATVPKGHCASCQKPIAGKVIHALGQSWHPEHFVCTHCKEEIGSSPFFERSGLAYCPNDYHQLFSPRCAYCAAPILDKVLTAMNQTWHPEHFFCSHCGEVFGAEGFHEKDKKPYCRKDFLAMFSPKCGGCNRPVLENYLSAMDTVWHPECFVCGDCFTSFSTGSFFELDGRPFCELHYHHRRGTLCHGCGQPITGRCISAMGYKFHPEHFVCAFCLTQLSKGIFREQNDKTYCQPCFNKLFPL"}, "B3": {"name": "EGFP-Caldesmon fusion protein (pEGFP-CALD1) (protein, UniProt Q05682-4 1-538)", "chain": "B1 chain"}}, "key": {"[1]": {"biological_target": "T1, Leupaxin, full length, yeast two-hybrid bait (pGBKT7-LPXN) (human) (UniProt O60711)", "T1 sequence": "B2 chain", "assay": "two-hybrid; direct test: pGBKT7-LPXN and pGADT7-CALD1 co-transformed into yeast AH109; SD -LTHA with 80 mg/l X-Gal"}, "[2]": {"biological_target": "T2, Caldesmon-Myc fusion protein (pCMV-Myc-CaD) (human) (UniProt Q05682)", "T2 sequence": "B1 chain", "assay": "co-IP; lysate of PC-3 cells transfected with pCMV-Myc-CaD or pCMV-Myc-LPXN; precipitation with anti-CaD or anti-LPXN antibody, blot with LPXN-specific or CaD-specific antibody"}, "[3]": {"biological_target": "T3, GST-LPXN (full-length leupaxin) (human) (UniProt O60711)", "T3 sequence": "B2 chain", "assay": "pull-down; purified GST-LPXN fusion proteins on glutathione-Sepharose, incubated with protein lysate of PC-3 cells transfected with pEGFP-Caldesmon; blot with CaD-specific antibody; only the target purified"}}, "note": "These are yes or no findings as the source states them, for the method shown. For part of these data: Binding seen in cells or lysates may run through a third protein. Some results given as binding are weak or reduced against the parent protein; the word gives no strength. For part of these data: Where a sequence is shown, tags or fusion partners need not be part of it.", "data": [{"binder": "B1", "values": [{"measurement": "binding", "setting": "[1]", "result": "binds"}]}, {"binder": "B2", "values": [{"measurement": "binding", "setting": "[2]", "result": "binds"}]}, {"binder": "B3", "values": [{"measurement": "binding", "setting": "[3]", "result": "binds"}]}]}
